# Test results reported in paper PMC7819943, “Rice protein-binding microarrays: a tool to detect cis-acting elements near promoter regions in rice”.
# This is one part of the list.
# Target: T1, OsSMF1 (Oryza sativa, UniProt Q6ZLB0 1-436)
# T1 sequence: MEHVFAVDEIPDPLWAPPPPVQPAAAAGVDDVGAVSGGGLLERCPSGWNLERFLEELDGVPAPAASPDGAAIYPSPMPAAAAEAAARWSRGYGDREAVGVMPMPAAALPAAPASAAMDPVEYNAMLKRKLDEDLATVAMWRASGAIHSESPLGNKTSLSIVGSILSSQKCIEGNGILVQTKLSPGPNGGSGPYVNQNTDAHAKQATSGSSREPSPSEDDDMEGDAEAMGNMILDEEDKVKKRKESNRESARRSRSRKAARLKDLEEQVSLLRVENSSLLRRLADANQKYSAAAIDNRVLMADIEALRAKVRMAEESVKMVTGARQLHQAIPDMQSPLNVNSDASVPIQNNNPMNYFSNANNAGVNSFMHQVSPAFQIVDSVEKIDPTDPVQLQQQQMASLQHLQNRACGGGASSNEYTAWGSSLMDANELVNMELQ
# Assay: protein-binding microarray (RPBM); PBS, 2% BSA, 51.3 ng/ul salmon testes DNA, 50 uM zinc acetate, 200 nM TF, 25 C, 1 h; high values mean tight binding
# Details: protein: recombinant; tags: N-terminal polyhistidine and DsRed monomer fusion (pET32a); chain copies: 2; label: CyDye5-dUTP incorporated in the synthesized complementary strand; 3' TTTTT single-stranded linker to array surface; dsDNA, one strand shown
# In short: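 For the binding signal, per-feature fluorescence intensity was read in arbitrary units on an Axon 4000B scanner. Before scanning, a 2% BSA-blocked custom Agilent array made double-stranded with Cy5-dUTP was washed after 1 h at 25 °C with 200 nM protein and 50 µM zinc acetate. The proteins were Ni–NTA-purified transcription factors with N-terminal polyhistidine and DsRed fusions, expressed in E. coli BL21-CodonPlus.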
row,Sequence,binding signal
1,TTACGCCGGTACATACATGCACCATGCCACCATTAGCAGGCGGAGTCACCTAGTGCAG,3190 fluorescence intensity (a.u.)
2,AGATAATAATTGCTAGTGGGTGATGATGTGACACACTTACCGGAGTCACCTAGTGCAG,5580 fluorescence intensity (a.u.)
3,TAGTTTGCCGCACCCACTGCCCCACTCTAAGTCGGCGGTCCGGAGTCACCTAGTGCAG,3540 fluorescence intensity (a.u.)
4,GTCAAGCCCAGCAGCTTCTTCAACAGCAGCAGCAACAGCACGGAGTCACCTAGTGCAG,4490 fluorescence intensity (a.u.)
5,TCCACCTCCGACCTCACCGTCACCGCCTTGCCGCGCACCGCGGAGTCACCTAGTGCAG,3380 fluorescence intensity (a.u.)
6,CAAATTTACTGTCAGCTTTTCCATTGGTCTGCAGCTATGACGGAGTCACCTAGTGCAG,3640 fluorescence intensity (a.u.)
7,GGTTCTTCAGCACCAACTTGATTTTCTACATCCGGTCTTGCGGAGTCACCTAGTGCAG,22200 fluorescence intensity (a.u.)
8,TTGAGATTACTTCCTTGTGACGGCCCGCAAATTCTAGTCTCGGAGTCACCTAGTGCAG,3890 fluorescence intensity (a.u.)
9,ACTCGGCGCGCGCGCGTGTGGCAGTCCAACCATCACCTCACGGAGTCACCTAGTGCAG,3640 fluorescence intensity (a.u.)
10,AATGGCCCATCCTCTGCTGTCCCCGAGACATCGTGCCGGTCGGAGTCACCTAGTGCAG,3360 fluorescence intensity (a.u.)
11,TATCAAAATTTATCTTGCCACGTTGGTTTAATATTTAACCCGGAGTCACCTAGTGCAG,9160 fluorescence intensity (a.u.)
12,TAACCATGGTCTTGCCTACGTGGCGTGCCACGTAGACGATCGGAGTCACCTAGTGCAG,34300 fluorescence intensity (a.u.)
13,CAAATTTATTTCATCGACTGCCACCGCCGTTCGATATCCACGGAGTCACCTAGTGCAG,4670 fluorescence intensity (a.u.)
14,ATTTCATCCGTTCGCACAACAGATCAGGGTTTATATTACCCGGAGTCACCTAGTGCAG,15000 fluorescence intensity (a.u.)
15,TAGTATCGAACAGGCAATGACATCAGGCTGGTGCTTCACGCGGAGTCACCTAGTGCAG,3680 fluorescence intensity (a.u.)
16,TGCCAATGCACACGGCGCCGTGGCTGGATTGCAGGATTGGCGGAGTCACCTAGTGCAG,22800 fluorescence intensity (a.u.)
17,GCTAACAGTGAGCTGAATCAGCAGCGGCTCCTGTCTCCTGCGGAGTCACCTAGTGCAG,4720 fluorescence intensity (a.u.)
18,CTCGCACACAACTGCCAGGTGACGTCGCGGCAAACGTTTCCGGAGTCACCTAGTGCAG,3630 fluorescence intensity (a.u.)
19,TCCTTTTCCATCACATCAACCTGTCATACACACACAACTTCGGAGTCACCTAGTGCAG,4300 fluorescence intensity (a.u.)
20,CCACGTAACAGCTAACGGGGTCCGGCCACGTACAGGTACACGGAGTCACCTAGTGCAG,5650 fluorescence intensity (a.u.)
21,GGCATGGTTCTAACAAACCCACTAACTAATTCATAGTTTTCGGAGTCACCTAGTGCAG,14700 fluorescence intensity (a.u.)

# Exported bar-delimited: entries from further up.
row | Sequence | binding signal
4 | GTCAAGCCCAGCAGCTTCTTCAACAGCAGCAGCAACAGCACGGAGTCACCTAGTGCAG | 4490 fluorescence intensity (a.u.)
5 | TCCACCTCCGACCTCACCGTCACCGCCTTGCCGCGCACCGCGGAGTCACCTAGTGCAG | 3380 fluorescence intensity (a.u.)
6 | CAAATTTACTGTCAGCTTTTCCATTGGTCTGCAGCTATGACGGAGTCACCTAGTGCAG | 3640 fluorescence intensity (a.u.)

# More results.

row,Sequence,binding signal
1,AGAACAAGTCCTCATTGTTCTTGACACCCACCATGTGGCACGGAGTCACCTAGTGCAG,3200 fluorescence intensity (a.u.)
2,GTACGCTCTGGACACGGGGATCGATGCGTCTGGTGGGGTGCGGAGTCACCTAGTGCAG,3180 fluorescence intensity (a.u.)
3,ACTTGGACATATGCAGGTACCTCTTTGTGTTCAAAACCTTCGGAGTCACCTAGTGCAG,26000 fluorescence intensity (a.u.)
4,TCACGAACTGTGTACCGGATGCCACGTCACACAGTTGTCTCGGAGTCACCTAGTGCAG,41200 fluorescence intensity (a.u.)
5,CCTGGAGCCAAACCGTGCTTGCCGTGCGGCGTGGCAGTCACGGAGTCACCTAGTGCAG,4280 fluorescence intensity (a.u.)
6,CAACCACCTCATCATCATCATTATAATCAAGATCATTACCCGGAGTCACCTAGTGCAG,4500 fluorescence intensity (a.u.)
7,CCCCTCGCGACCGCGACCGCGACGCGTGCACATGCCGCTGCGGAGTCACCTAGTGCAG,3160 fluorescence intensity (a.u.)
8,TCCCCTAGCTAGAATTATTCACTTTTAGGCTTCTATTGTTCGGAGTCACCTAGTGCAG,16800 fluorescence intensity (a.u.)
9,CACTTTCAACCCATATCTACCGTCCGTCTCCATCTGACACCGGAGTCACCTAGTGCAG,3870 fluorescence intensity (a.u.)
10,CTTTAATTCCTAAGGTGGAGTAGATGCTACACGCATAGATCGGAGTCACCTAGTGCAG,3550 fluorescence intensity (a.u.)
11,TATGAGAAGGTTCCGCATTACCTGTAAAGGACACCACCACCGGAGTCACCTAGTGCAG,4290 fluorescence intensity (a.u.)
12,CGTGCGGGGTGATGAGATACTGCTGCACGTCATCCGCCCCCGGAGTCACCTAGTGCAG,17000 fluorescence intensity (a.u.)
13,CAAATGCAGAAAAGATAATCTCCTTTCTCTCTCTATTAAACGGAGTCACCTAGTGCAG,31100 fluorescence intensity (a.u.)
14,TTATATATCCCTGATAGCTGATTAGTTGGCACATCAGCATCGGAGTCACCTAGTGCAG,3210 fluorescence intensity (a.u.)
15,GCTAGCTGCCGGTATATGATACATCCACGTCAGAGTAAAGCGGAGTCACCTAGTGCAG,11900 fluorescence intensity (a.u.)
16,ACTAAACAGATTTTCTTTAAAGTTTATGCAGAAAAGTTTCCGGAGTCACCTAGTGCAG,5060 fluorescence intensity (a.u.)
17,CTCCTCTCGCTCCACCGCTTCGTCACGCAGGCCTCCGTCGCGGAGTCACCTAGTGCAG,4200 fluorescence intensity (a.u.)
18,CCGACGCTGTGGCAATCATTCGTCATACAGTAGTTGGCCACGGAGTCACCTAGTGCAG,4090 fluorescence intensity (a.u.)
19,CACTACTCATCAGCCCACGTTAACACGCGTTCTCCGGTGGCGGAGTCACCTAGTGCAG,3230 fluorescence intensity (a.u.)
20,TGTATTTGTCTTTGTTAGCTGAATTTGTGGCCATGGATTTCGGAGTCACCTAGTGCAG,23000 fluorescence intensity (a.u.)
21,ATCGAAGGCGAGAGCTCTTCTTCTTCCCCTCCTCCAAGCACGGAGTCACCTAGTGCAG,60500 fluorescence intensity (a.u.)
